From paper PMC11423204
These are yes or no findings as the source states them, for the method shown. Binding seen in cells or lysates may run through a third protein. Some results given as binding are weak or reduced against the parent protein; the word gives no strength. Tags and fused reporters may be left off the sequences shown.

How the values were obtained:
ETS1-1 (1-134 aa) = target: T1, ETS1-1 (1-134 aa) (UniProt P14921); test: co-IP; Flag-tagged ETS1 truncations transfected in 786-O cells, co-IP with Flag-tagged antibodies, western blot
T1 sequence: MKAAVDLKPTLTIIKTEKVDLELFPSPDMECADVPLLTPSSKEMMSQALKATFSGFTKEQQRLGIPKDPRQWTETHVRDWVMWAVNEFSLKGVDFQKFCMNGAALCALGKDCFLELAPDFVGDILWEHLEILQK

[1] = target: T2, ETS1 recombinant (GST fusion protein) (UniProt P14921); test: pull-down; GST fusion protein immobilised on glutathione-sepharose beads, incubated with cell lysate (RIPA) at 4 °C overnight, 6 washes; only the target purified
T2 sequence: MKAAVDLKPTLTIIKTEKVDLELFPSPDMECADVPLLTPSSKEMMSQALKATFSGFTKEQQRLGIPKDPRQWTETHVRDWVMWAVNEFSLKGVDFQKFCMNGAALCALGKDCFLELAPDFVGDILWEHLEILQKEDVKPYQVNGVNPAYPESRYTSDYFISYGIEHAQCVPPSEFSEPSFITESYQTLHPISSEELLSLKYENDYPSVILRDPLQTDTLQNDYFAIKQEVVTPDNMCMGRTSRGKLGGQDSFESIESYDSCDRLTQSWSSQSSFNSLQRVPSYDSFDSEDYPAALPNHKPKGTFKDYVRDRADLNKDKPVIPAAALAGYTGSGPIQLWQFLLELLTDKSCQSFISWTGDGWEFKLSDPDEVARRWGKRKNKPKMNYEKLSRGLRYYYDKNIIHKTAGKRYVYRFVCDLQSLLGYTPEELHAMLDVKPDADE

[2] = target: T3, ETS1 (human (endogenous in 786-O and ACHN)) (UniProt P14921); test: co-IP; endogenous proteins in RIPA lysate of 786-O and ACHN cells, specific antibodies and magnetic beads, 4 °C overnight, 6 washes, western blot; cells also after HDAC8 sgRNA/shRNA, 10 µM PCI-34051, HDAC8 WT or S39D overexpression, NEK1 siRNA, NEK1 plasmids or 10 µM BSc5367
T3 sequence: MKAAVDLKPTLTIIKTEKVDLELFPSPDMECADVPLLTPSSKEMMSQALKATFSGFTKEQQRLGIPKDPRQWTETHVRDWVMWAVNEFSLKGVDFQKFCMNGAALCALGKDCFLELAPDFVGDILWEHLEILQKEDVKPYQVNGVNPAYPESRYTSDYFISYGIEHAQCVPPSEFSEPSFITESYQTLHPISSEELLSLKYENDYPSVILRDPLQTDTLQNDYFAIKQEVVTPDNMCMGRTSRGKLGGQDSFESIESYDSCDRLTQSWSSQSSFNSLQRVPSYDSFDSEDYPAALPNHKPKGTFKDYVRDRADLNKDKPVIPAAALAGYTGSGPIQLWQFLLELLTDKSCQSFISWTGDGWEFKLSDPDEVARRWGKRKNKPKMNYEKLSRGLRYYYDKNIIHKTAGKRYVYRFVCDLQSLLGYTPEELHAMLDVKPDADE

[3] = target: T3, ETS1 (human (endogenous in 786-O and ACHN)); test: proximity ligation; proximity ligation assay in 786-O cells with antibodies against ETS1 and HDAC8, immunofluorescence

Measured: binding

B1: histone deacetylase 8 (HDAC8) (enzyme, UniProt Q9BY41 1-377)
chain: MEEPEEPADSGQSLVPVYIYSPEYVSMCDSLAKIPKRASMVHSLIEAYALHKQMRIVKPKVASMEEMATFHTDAYLQHLQKVSQEGDDDHPDSIEYGLGYDCPATEGIFDYAAAIGGATITAAQCLIDGMCKVAINWSGGWHHAKKDEASGFCYLNDAVLGILRLRRKFERILYVDLDLHHGDGVEDAFSFTSKVMTVSLHKFSPGFFPGTGDVSDVGLGKGRYYSVNVPIQDGIQDEKYYQICESVLKEVYQAFNPKAVVLQLGADTIAGDPMCSFNMTPVGIGKCLKYILQWQLATLILGGGGYNLANTARCWTYLTGVILGKTLSSEIPDHEFFTAYGPDYVLEITPSCRPDRNEPHRIQQILNYIKGNLKHVV
binds: ETS1-1 (1-134 aa) | [1] | [2] | [3]
